Laboratory results reported in the supplement of paper PMC8104966.
Where “and” joins values, the source holds several entries; their conditions need not be identical. Equal entries are not always repeated. Some of the results follow. Single values are uncertain here, since repeats match poorly.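 U2OS cells carrying ACE2 were mixed with U2OS cells carrying full-length spike, and fusion was scored by imaging as the share of nuclei showing both cell types' fluorescent markers. A compound counts as an inhibitory hit when it is non-toxic and its fusion z-score falls below -3, meaning more than three standard deviations below the plate's DMSO wells.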

The compounds below were run on U2OS ACE2 x SARS-CoV-2 spike co-culture (assay: cell-cell fusion (fraction fused) z-score vs plate DMSO control; higher = more fusion). Conditions: 30 µM; 5 h; toxicity class: non-toxic, passed QC.

| SMILES | cell-cell fusion (z-score) |
| --- | --- |
| CC(C)NCC(O)COc1ccc(COCCOC(C)C)cc1.CC(C)NCC(O)COc1ccc(COCCOC(C)C)cc1.O=C(O)/C=C/C(=O)O (stereo not given) [Bisoprolol hemifumarate salt] | inactive: 2.91 |
| CCC(=O)NC[C@@H]1C[C@H]1c1cccc2c1CCO2 [Tasimelteon] | inactive: 1.67 |
| C[C@H](O)C(=O)C1=Nc2c(nc(N)[nH]c2=O)NC1 [Sepiapterin] | inactive: 1.91 |
| O=C(/C=C/c1ccc(O)c(O)c1)OCCc1ccccc1 [Caffeic acid phenethyl ester] | inactive: 1.56 |
| COC(=O)Nc1nc2cc(C(=O)c3ccccc3)ccc2[nH]1 | inactive: 0.722 |
| OC1(c2ccc(Cl)c(C(F)(F)F)c2)CCN(CCCC(c2ccc(F)cc2)c2ccc(F)cc2)CC1 | inactive: 3.48 |
| NC(CO)(CO)CO.O=C(c1ccccc1)c1ccc2n1CCC2C(=O)O (stereo not given) | inactive: 2.46 |
| NC(CO)(CO)CO.O=C(c1ccccc1)c1ccc2n1CCC2C(=O)O (stereo not given) [Ketorolac tris salt] | inactive: 2.77 |
| CNC(=O)c1cc(Oc2ccc(NC(=O)Nc3ccc(Cl)c(C(F)(F)F)c3)cc2)ccn1.Cc1ccc(S(=O)(=O)O)cc1 [Sorafenib Tosylate] | active: -12.3 |
| CNC(=O)c1cc(Oc2ccc(NC(=O)Nc3ccc(Cl)c(C(F)(F)F)c3)cc2)ccn1.Cc1ccc(S(=O)(=O)O)cc1 [Sorafenib (Nexavar)] | active: -5.34 |
| Cc1c([N+](=O)[O-])cc2[nH]c(=O)c(=O)[nH]c2c1CN1CCCC1.O=S(=O)(O)CCO | inactive: 2.82 |
| COc1ccc(-c2cc3ncc(C)n3c(Nc3ncccc3C(N)=O)n2)cc1OC.Cl [BAY 61-3606 hydrochloride hydrate] | inactive: -1.02 |
| Oc1cc(Cl)ccc1Oc1ccc(Cl)cc1Cl | inactive: -2.88 |
| Cc1ccc(Nc2nccc(N(C)c3ccc4c(C)n(C)nc4c3)n2)cc1S(N)(=O)=O [Pazopanib] | inactive: 1.17 |
| O=C1CC[C@@H](C(=O)N2CSC[C@H]2C(=O)O)N1 | inactive: 1.94 |
| CC(C)C(=O)Oc1ccc(CO)cc1[C@H](CCN(C(C)C)C(C)C)c1ccccc1.O=C(O)/C=C/C(=O)O [Fesoterodine fumarate] | inactive: 3.4 |
| CCN(CC)CC#CCOC(=O)C(O)(c1ccccc1)C1CCCCC1.Cl (stereo not given) | inactive: 4.68 |
| CCN(CC)CC#CCOC(=O)C(O)(c1ccccc1)C1CCCCC1.Cl (stereo not given) [Oxybutynin Chloride] | inactive: 2.35 |
| OC[C@H]1O[C@H](Oc2cc(O)cc(/C=C/c3ccc(O)cc3)c2)[C@H](O)[C@@H](O)[C@@H]1O | inactive: 1.38 |
| C=CCc1ccc(O)c(-c2ccc(O)c(CC=C)c2)c1 [Honokiol] | inactive: -0.711 |
| C[N+](C)(C)CC(O)CC(=O)O.[Cl-] (stereo in doubt) [L-Carnitine hydrochloride] | inactive: 3.16 |
| CC1(C)S[C@@H]2[C@H](NC(=O)[C@H](C(=O)[O-])c3cccs3)C(=O)N2[C@H]1C(=O)[O-].[Na+].[Na+] | inactive: 2.97 |
| CN(C)CCC(c1ccc(Cl)cc1)c1ccccn1.O=C(O)/C=C\C(=O)O (racemic) [(±)-Chlorpheniramine maleate] | inactive: 0.865 |
| O=C(Nc1cccnc1)N1CCC(Cc2cccc(Oc3ccc(C(F)(F)F)cn3)c2)CC1 [PF 3845 hydrate] | inactive: -0.901 |

Some of the entries above in another layout:
SMILES	cell-cell fusion (z-score)
OC1(c2ccc(Cl)c(C(F)(F)F)c2)CCN(CCCC(c2ccc(F)cc2)c2ccc(F)cc2)CC1	inactive: 3.48
Cc1ccc(Nc2nccc(N(C)c3ccc4c(C)n(C)nc4c3)n2)cc1S(N)(=O)=O [Pazopanib]	inactive: 1.17
C[N+](C)(C)CC(O)CC(=O)O.[Cl-] (stereo in doubt) [L-Carnitine hydrochloride]	inactive: 3.16

More records follow:

| SMILES | cell-cell fusion (z-score) |
| --- | --- |
| CN1CC(CNC(=O)OCc2ccccc2)C[C@H]2c3cccc4c3c(cn4C)CC21 (stereo not given in full) | inactive: 0.305 |
| COc1cc(OC)c2c(c1)O[C@H](c1ccc(OC)c(OC)c1)[C@@H](O)C2 | inactive: 1.5 |
| NCC(O)CC(=O)O (stereo not given) | inactive: 2.22 |
| Cc1cc2c(cc1S(N)(=O)=O)S(=O)(=O)CCC2 | inactive: 1.35 |
| CC(C)(S)C(N)C(=O)O.NCCO (stereo not given) | inactive: 1.33 |
| OCCn1cc(-c2cnc3nnn(Cc4ccc5ncccc5c4)c3n2)cn1 | inactive: 1.28 |
| O=C([O-])CCC(=O)OC[C@@H](NC(=O)C(Cl)Cl)[C@H](O)c1ccc([N+](=O)[O-])cc1.[Na+] | inactive: 0.198 |
| O=C([O-])P(=O)([O-])[O-].[Na+].[Na+].[Na+] | inactive: 1.86 |
| Cc1cc(O)c2c(c1)C(=O)c1cccc(O)c1C2=O [Chrysophanic acid (Chrysophanol)] | inactive: 1.46 |
| Cc1cc(O)c2c(c1)C(=O)c1cccc(O)c1C2=O [Chrysophanic Acid] | inactive: 1.3 |
| CCN(CC)CCCC(C)Nc1c2ccc(Cl)cc2nc2ccc(OC)cc12.Cl.Cl (stereo not given) | inactive: 1.38 |
| O=C([O-])c1ccccc1[O-].[Bi+3].[OH-] [Bismuth subsalicylat] | inactive: 1.94 |
| C=CCCCCCCCCC(=O)[O-].C=CCCCCCCCCC(=O)[O-].NCCO.NCCO.[Zn+2] | inactive: 0.586 |
| Cl.O=C1NCC2(CCN(CCc3ccccc3)CC2)O1 [Fenspiride hydrochloride] | inactive: 3.08 |
| Cl.O=C1NCC2(CCN(CCc3ccccc3)CC2)O1 | inactive: 1.24 |
| CCCC(C)C1(CC)C(=O)N=C(O)NC1=O (stereo not given) | inactive: 2.17 |
| CS(=O)(=O)O.C[C@H]1COc2c(C3(N)CC3)c(F)cc3c(=O)c(C(=O)O)cn1c23 | inactive: 1.6 |
| N=C(N)NCCCCNC(=N)N.O=S(=O)(O)O [Arcaine sulfate] | inactive: 2.22 |
| CC(C)N(CCC(=O)c1ccc2ccccc2c1)Cc1ccccc1.Cl | inactive: 2.57 |
| CC(CCC(=O)O)[C@H]1CCC2C3C(C[C@H](O)[C@@]21C)[C@@]1(C)CC[C@@H](O)C[C@H]1C[C@H]3O (stereo not given in full) | inactive: 2.77 |
| CCS(=O)(=O)N1CC(CC#N)(n2cc(-c3ncnc4[nH]ccc34)cn2)C1.O=P(O)(O)O [Baricitinib Phosphate] | inactive: -2.67 |
| Cl.c1ccc(C2CN3CCSC3=N2)cc1 (stereo not given) | inactive: 2.04 |
| Cl.c1ccc(C2CN3CCSC3=N2)cc1 (stereo not given) [Tetramisole hydrochloride] | inactive: 1.14 |
| COc1cc2c(cc1O)CCNC2C (stereo not given) | inactive: 1.12 |

| SMILES | cell-cell fusion (z-score) |
| --- | --- |
| COC(=O)C[C@H]1C(C)(C)[C@@H](O)[C@@H]2CC3=C4CC(O)O[C@@H](c5ccoc5)[C@]4(C)CCC3[C@@]1(C)C2=O (stereo partly drawn) [3,16-DIDEOXYMEXICANOLIDE-3beta-DIOL] | inactive: 3.05 |
| CC1(C)C(=O)C=C[C@@]2(C)C1C=C[C@]1(C)C2CC[C@@]2(C)[C@H](c3ccoc3)OC(=O)[C@H]3O[C@]321 (stereo not given in full) | inactive: 2.44 |
| CC1=C(C(=O)O)N2C(=O)[C@@H](NC(=O)[C@H](N)c3ccccc3)[C@H]2SC1 [Cephalexin] | inactive: -1.93 |
| CCn1cc(C(=O)O)c(=O)c2cnc(N3CCCC3)nc21.NCCO | inactive: 0.665 |
| NCCO.NCCO.O[AsH]O[AsH]O (stereo not given) | inactive: 1.8 |
| CC(CN(C)C)CN1c2ccccc2Sc2ccccc21.CC(CN(C)C)CN1c2ccccc2Sc2ccccc21.O=C(O)[C@H](O)[C@@H](O)C(=O)O (stereo not given) [Trimeprazine tartrate] | inactive: -0.0467 |
| CC(C)[N+](C)(CCOC(=O)C1c2ccccc2Oc2ccccc21)C(C)C.[Br-] | inactive: 0.606 |
| CCCCCCCCCC[Si](C)(C)CCC(=O)NC(Cc1ccc(C)cc1)c1ccccc1 (stereo not given) [Sandoz 58-035] | inactive: 3.45 |
| CC(=O)N[C@@H](CCC(=O)O)C(=O)O | inactive: 3.55 |
| Nc1nnc(-c2cccc(Cl)c2Cl)c(N)n1 [Lamotrigine] | inactive: 2.94 |
| O=C1NC(=O)/C(=C\c2cccc(C(F)(F)F)c2)S1 | inactive: 0.754 and inactive: -0.678 |
| CCCCCCOc1ccccc1C(N)=O | inactive: 1.7 |
| Nc1ncnc2c1ncn2[C@@H]1O[C@H](CO)[C@@H](O)[C@H]1O [Adenosine] | inactive: 1.81 |
| N#Cc1ccc(C(c2ccc(C#N)cc2)n2cncn2)cc1 [Letrozole] | inactive: 3.97 |
| CC(=O)CC(c1ccccc1)c1c(O)c2ccccc2oc1=O (stereo not given) | inactive: 2.29 |
| Cc1c(N)c(=O)n(-c2ccccc2)n1C | inactive: 1.61 |
| N#Cc1ccc2[nH]cc(CCCCN3CCN(c4ccc5oc(C(N)=O)cc5c4)CC3)c2c1 [Vilazodone] | inactive: -0.496 |
| COc1ccc(-c2oc3c(CC=C(C)C)c(O[C@@H]4O[C@H](CO)[C@@H](O)[C@H](O)[C@H]4O)cc(O)c3c(=O)c2O[C@@H]2O[C@@H](C)[C@H](O)[C@@H](O)[C@H]2O)cc1 | inactive: 2.3 |
| CC1(C)O[C@@H]2CC3C4C[C@H](F)C5=CC(=O)CC[C@]5(C)C4[C@@H](O)C[C@]3(C)[C@]2(C(=O)CO)O1 (stereo not given in full) | inactive: 3.08 |
| CC(=O)O.N=C(N)N/N=C\c1c(Cl)cccc1Cl | inactive: -0.188 |
| CNCCCC12CCC(c3ccccc31)c1ccccc12.Cl [Maprotiline hydrochloride] | inactive: -1.84 |
| C=CCN1CCC23c4c5ccc(O)c4O[C@H]2C(=O)CC[C@@]3(O)C1C5.Cl (stereo not given in full) [Naloxone hydrochloride] | inactive: 2.52 |
